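Viability assay of Plasmodium falciparum sporozoites; the read-out is not stated. The concentration is filed as 10 mM, unlikely as a test dose, so the dose is not known. The record gives no direction; compounds that gave an IC50 in retests scored well above the rest, so higher reads as lower viability. Strong results were mostly tested again. About 34,000 compounds were tested under these conditions; 0.84% (about 280) showed 50% or more at least once.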

The filed quantity is “Percent Effect” (%).
The record does not define 0% and 100%; most values in the screen are far below 50% and negative numbers occur (in some assays of this library far below -100).
This is an unselected part of the compounds tested.
Two or more numbers in one place are separate tests of the same structure; such repeats can differ widely.

Compound	effect
CC(C)N1CCCC(Cc2nccnc2Cl)C1 (configuration not stated)	8.076%
COc1ccccc1C1(C(=O)N2CCCC(c3cc(C)[nH]n3)C2)CC1 (configuration not stated)	1.417%
O=C1CC[C@]2(CC[C@@H](NC(=O)NCc3ccccc3)CC2)N1	13.4%
[H][C@@]12CCN(C(=O)Cc3ccc(F)cc3OC)C[C@]1([H])OCCNC2=O	6.899%
Cc1ccc(-c2nc(CNCCn3cccn3)cs2)o1	-15.77% and -27.01% and -9.398%
Cc1nc(CN2CCOCC2c2[nH]ncc2C)cs1 (configuration not stated)	-3.401%
CCc1nnc2n1CCN(C(=O)c1nc(-c3ccco3)sc1C)C2	2.333%
COCc1nc(C(=O)N2CCCC2Cn2cc(C)cn2)cs1 (configuration not stated)	-0.5102%
Cc1ccc(Cl)c(C)c1NC(=O)N1CCCN(Cc2ccccn2)CC1	5.277%
CCN1CCCC2(CCN(Cc3nnc(C4CC4)o3)C2)C1=O (configuration not stated)	-5.817%
O=C(CCC1CCCO1)NS(=O)(=O)c1ccc(Cl)cc1 (configuration not stated)	5.76%
O=C(O)C(F)(F)F.O=C(O)C(F)(F)F.O=C(O)C(F)(F)F.[H][C@@]12CN(Cc3cccnc3OC)C[C@]1([H])OCCN2CCN(C)C	0.4826% and -5.463%
c1ncc2c(n1)CN(Cc1nc(-c3ccsc3)no1)CC2	-3.68%
O=C(O)C(F)(F)F.O=C(O)C(F)(F)F.O=C(O)C(F)(F)F.[H][C@@]12C[C@@H](OCCN3CCCC3)CN1CCN(C(=O)Cc1ccccn1)C2	-8.505%
Cc1ccc(C(=O)NS(=O)(=O)c2ccccc2C)c(=O)[nH]1	-11.11%
CC(C)c1nc(CN(C)C2CCN(Cc3nc(C4CC4)no3)C2)no1 (configuration not stated)	3.896%
O=C(Nc1cc(-c2cccnc2)no1)C1CCC1	-8.705%
[H][C@@]12C[C@H](c3nnc(C)o3)O[C@@]1([H])CCN(C(=O)Cc1ccc(F)cc1)C2	-6.388%
CC(=O)N1CCC(c2nccnc2Nc2cnccn2)CC1	2.046%
Cn1ccc(C(=O)N2CCC(Cc3cccc4ncccc34)C2)n1 (configuration not stated)	12.72%
Cc1cccc(C(=O)N2Cc3ccccc3C3(CCN(C)CC3)C2)n1	-6.54%
COc1nc2cc(C)ccc2cc1CN(C)Cc1cc(C)[nH]n1.O=C(O)CC(O)(CC(=O)O)C(=O)O	7.178%
CCCc1nc(C)c(C(=O)NCCn2nc3ccccn3c2=O)s1	17.07%
O=C(CC1CC1)N1CCc2ncc(CN3CCOCC3)n2CC1.O=C(O)C(F)(F)F	7.646%
Cc1occc1C(=O)N1CCC2(CCC2NC(=O)c2ccn(C)c2)CC1 (configuration not stated)	-5.257%
Cc1nc(CN2CCN(CCCc3ccccc3)CC2)no1	-11.05%
[H][C@]12CCCCN1CCC[C@H]2CNC(=O)Cn1ccc2cc(C)ccc21	-8.114%
Cc1nc(C)n(CC2CN(Cc3cccc(OC(C)C)c3)CCO2)n1 (configuration not stated)	11.22%
CN1CCN(C(=O)c2ccc(Cn3cc(Br)cn3)cc2)CC1	-8.052%
Cc1oc(C)c(C(=O)NCc2ccccc2CN(C)C)c1C	1.894%
Cc1nc(C2CCCN(C(=O)c3cccc4c3OCCO4)C2)no1 (configuration not stated)	5.72%
CC(C)c1noc(C(C)N2CCN(Cc3ccsc3)CC2)n1 (configuration not stated)	-10.51%
CN(C)c1nccc(C2CCN(C(=O)CO)CC2)n1	5.017%
O=C(O)C(F)(F)F.O=C(O)C(F)(F)F.[H][C@@]12COC[C@]1(COCc1cccc(C)n1)CN(c1cc(OC)ncn1)C2	0%
CCc1nnc(CN2CCCCC2Cn2nc(C)nc2C)o1 (configuration not stated)	4.489%
CCOc1cccc(C(C)NC(=O)N2CCC(C(N)=O)CC2)c1 (configuration not stated)	-9.059%
COc1ncccc1NC(=O)C1CCS(=O)(=O)C1 (configuration not stated)	1.962%
CN(C)C(=O)CN1CCCC(c2cncc(-c3cccc(Cl)c3)n2)C1 (configuration not stated)	11.41%
CC(C)NC(=O)N1CCC2(CC(=O)N(c3cccc(F)c3)C2)C1 (configuration not stated)	-6.326%
CCC(C)NS(=O)(=O)Cc1cccc(NC(=O)c2ccc[nH]2)c1 (configuration not stated)	-2.775%
Cc1cnn(CC(C)NCc2csc(-c3ccco3)n2)c1 (configuration not stated)	-33.74% and -34.5% and -4.057%
Cc1ccc(C)c(CS(=O)(=O)Cc2ccn(C)c(=O)c2)c1	-2.964%
Cc1ccc(-n2ncc(C(=O)NCC3CCS(=O)(=O)C3)c2C)cc1 (configuration not stated)	8.86%
CN1CCC(Cc2cccc(-c3cc(F)ccc3C(=O)O)n2)CC1	0.9993%
COC(=O)c1ccc2ccn(CC3CCCCO3)c(=O)c2c1 (configuration not stated)	-18.33%
O=C(NC1CC1)C1=CC2(CCN(CC3CC3)CC2)c2ccccc21.O=C(O)C(F)(F)F	-4.116%
Cc1cc(N2CCCC2c2cncc(N(C)C)n2)ncn1 (configuration not stated)	0.3218%
CCN1CC2(CCCCN2C(=O)c2ccsc2)CC1=O (configuration not stated)	7.581%
O=S(=O)(NCCNc1ccc(-n2cccn2)nn1)c1ccccc1	-11.72%
CN(C)Cc1ccc(C2CCCCN2C(=O)c2ncccc2O)cc1 (configuration not stated)	-18.41%
CCc1ccc(C(C)NC(=O)CN(C)Cc2ccc(C)o2)cc1 (configuration not stated)	-21.94%
CC(C)CN1CCN(C(=O)c2ccn(C)c(=O)c2)CC1	-11.57% and -33.41% and -27.95%
Cc1noc(CCCNC(=O)N2CCc3ccccc3C2CO)n1 (configuration not stated)	27.77%
Cc1cnn(CC2CN(CCS(=O)(=O)c3ccccc3)CCO2)c1 (configuration not stated)	1.384%
COCCC(=O)N1CCC2(CCN(Cc3cccc(F)c3)CC2)C1.O=C(O)C(F)(F)F	-3.559%
O=C(COc1cccc(Br)c1)N1CCOCC1c1ncon1 (configuration not stated)	-6.084% and -2.214% and -17.6%
CC(C)c1noc(-c2cccc(OCC(N)=O)c2)n1	10.65%
CN(C)CCN1CCN(Cc2ccco2)Cc2cccnc21.O=C(O)C(F)(F)F.O=C(O)C(F)(F)F.O=C(O)C(F)(F)F	-6.404%
Cc1cc(N2CCN3CCCCC3C2)n2nc(C)c(C)c2n1 (configuration not stated)	-5.375%
[H][C@]12CCN(S(=O)(=O)c3ccc(C)cc3)[C@@]1([H])[C@@H](NC(=O)c1[nH]ncc1Br)C2	5.762%
O=C1CC(c2cccnc2)C2(CCN(C(=O)c3ccncc3)CC2)N1 (configuration not stated)	-17.37%
O=C(O)C(F)(F)F.[H][C@]12C[C@@H](C(=O)N(C)C)CO[C@@]1([H])CCN(c1ncc(F)cn1)C2	16.36%
CCOC(=O)[C@H]1[C@@H](O)C(=O)N(C)C12CCN(C(=O)OCC)CC2	-4.115%
Cc1cc(C)n(CC2CCCN2CC(=O)N(C)Cc2cnn(C)c2)n1 (configuration not stated)	3.84%
CC(=O)Nc1nc(C2CN(C(=O)C3CCC3)C2)cs1	-4.082%
CCn1nc(C)c(-c2cncn2Cc2ccccc2CN(C)C)c1C.Cl	1.744%
Cc1cc(C)n(CC2CCCN2CCS(=O)(=O)c2ccccc2)n1 (configuration not stated)	4.992%
CC(Cn1cccn1)NC(=O)N(C)Cc1ccc(Cl)s1 (configuration not stated)	2.878%
Cc1cnn(CC2CCCN2Cc2nnsc2Cl)c1 (configuration not stated)	-2.714%
Cc1noc2ncnc(N(C)Cc3ccco3)c12	-12.81%
CN1CCc2nc(C3CCCN(S(=O)(=O)N4CCCC4)C3)ncc2C1 (configuration not stated)	-0.2533%
O=c1c(CN2CCOCC2)coc(O)c1CN1CCOCC1	-9.432%
COCC(=O)N1CCC(c2nccn2CC2CC2)CC1	-2.235%
CC(C)C(=O)NCC(=O)N(C)C1CCCN(C2Cc3ccccc3C2)C1 (configuration not stated)	-4.588%
[H][C@@]12CCN(c3cccc(C)n3)C[C@]1([H])[C@@H](CN(C)Cc1ccco1)OC2	7.791%
O=CO.c1cc2nccc(CC3CCCN(Cc4c[nH]cn4)CC3)c2cn1 (configuration not stated)	1.466%
Cc1nc(C2CCN(S(C)(=O)=O)CC2)nc2c1CCC(=O)N2CC(C)C	-2.462%

The first 6 entries again:

Compound,effect
CC(C)N1CCCC(Cc2nccnc2Cl)C1 (configuration not stated),8.076%
COc1ccccc1C1(C(=O)N2CCCC(c3cc(C)[nH]n3)C2)CC1 (configuration not stated),1.417%
O=C1CC[C@]2(CC[C@@H](NC(=O)NCc3ccccc3)CC2)N1,13.4%
[H][C@@]12CCN(C(=O)Cc3ccc(F)cc3OC)C[C@]1([H])OCCNC2=O,6.899%
Cc1ccc(-c2nc(CNCCn3cccn3)cs2)o1,-15.77% and -27.01% and -9.398%
Cc1nc(CN2CCOCC2c2[nH]ncc2C)cs1 (configuration not stated),-3.401%

Data taken from ChEMBL document CHEMBL3988442, “University of Dundee, Small-Polar-MMV Screening Library” (2021).